Patent US20130101605A1
Results are given in words; binding and its absence hold for the method and conditions named. Some entries that bind do so weakly or less than the wild type.

B1: Mouse RGM-A-AP (ligand, UniProt Q6PCX7 48-427, looked up, not shown: large carriers; small tags and cut ends)
chain: CKILKCNSEFWSATSSGSHAPASDDVPEFCAALRTYALCTRRTARTCRGDLAYHSAVHGIEDLMSQHNCSKDGPTSQPRVRTLPPAGDSQERSDSPEICHYEKSFHKHSAAPNYTHCGLFGDPHLRTFTDHFQTCKVQGAWPLIDNNYLNVQVTNTPVLPGSAATATSKLTIIFKNFQECVDQKVYQAEMDELPSAFADGSKNGGDKHGANSLKITEKVSGQHVEIQAKYIGTTIVVRQVGRYLTFAVRMPEEVVNAVEDRDSQGLYLCLRGCPLNQQIDFQAFRANAESPRRPAAASPSPVVPETFPYETAVAKCKEKLPVEDLYYQACVFDLLTTGDVNFTLAAYYALEDGKMLHSNKDKLHLFERTRELPGAVAAAA
B2: Mouse RGM-B-AP, Q7TQ33 49-415 (ligand, UniProt Q7TQ33 49-415, looked up, not shown: large carriers; small tags and cut ends)
chain: GDCQQPTQCRIQKCTTDFVALTAHLNSAADGFDSEFCKALRAYAGCTQRTSKACRGNLVYHSAVLGISDLMSQRNCSKDGPTSSTNPEVTHDPCNYHSHGGVREHGGGDQRPPNYLFCGLFGDPHLRTFKDHFQTCKVEGAWPLIDNNYLSVQVTNVPVVPGSSATATNKVTIIFKAQHECTDQKVYQAVTDDLPAAFVDGTTSGGDGDVKSLHIVEKESGRYVEMHARYIGTTVFVRQLGRYLTLAIRMPEDLAMSYEESQDLQLCVNGCPMSECIDDGQGQVSAILGHSLPHTTSVQAWPGYTLETASTQCHEKMPVKDIYFQSCVFDLLTTGDANFTAAAHSALEDVEALHPRKERWHIFPSSC

Key:
[1] = molecular target: mouse Neogenin expressed on COS-7 cells (mouse) (UniProt P97798); test: AP fusion binding to Neogenin-expressing cells
[2] = molecular target: T1, mouse Neogenin expressed on COS-7 cells (mouse), P97798; test: AP fusion binding to Neogenin-expressing cells; details: remark: other sources report otherwise
T1 chain: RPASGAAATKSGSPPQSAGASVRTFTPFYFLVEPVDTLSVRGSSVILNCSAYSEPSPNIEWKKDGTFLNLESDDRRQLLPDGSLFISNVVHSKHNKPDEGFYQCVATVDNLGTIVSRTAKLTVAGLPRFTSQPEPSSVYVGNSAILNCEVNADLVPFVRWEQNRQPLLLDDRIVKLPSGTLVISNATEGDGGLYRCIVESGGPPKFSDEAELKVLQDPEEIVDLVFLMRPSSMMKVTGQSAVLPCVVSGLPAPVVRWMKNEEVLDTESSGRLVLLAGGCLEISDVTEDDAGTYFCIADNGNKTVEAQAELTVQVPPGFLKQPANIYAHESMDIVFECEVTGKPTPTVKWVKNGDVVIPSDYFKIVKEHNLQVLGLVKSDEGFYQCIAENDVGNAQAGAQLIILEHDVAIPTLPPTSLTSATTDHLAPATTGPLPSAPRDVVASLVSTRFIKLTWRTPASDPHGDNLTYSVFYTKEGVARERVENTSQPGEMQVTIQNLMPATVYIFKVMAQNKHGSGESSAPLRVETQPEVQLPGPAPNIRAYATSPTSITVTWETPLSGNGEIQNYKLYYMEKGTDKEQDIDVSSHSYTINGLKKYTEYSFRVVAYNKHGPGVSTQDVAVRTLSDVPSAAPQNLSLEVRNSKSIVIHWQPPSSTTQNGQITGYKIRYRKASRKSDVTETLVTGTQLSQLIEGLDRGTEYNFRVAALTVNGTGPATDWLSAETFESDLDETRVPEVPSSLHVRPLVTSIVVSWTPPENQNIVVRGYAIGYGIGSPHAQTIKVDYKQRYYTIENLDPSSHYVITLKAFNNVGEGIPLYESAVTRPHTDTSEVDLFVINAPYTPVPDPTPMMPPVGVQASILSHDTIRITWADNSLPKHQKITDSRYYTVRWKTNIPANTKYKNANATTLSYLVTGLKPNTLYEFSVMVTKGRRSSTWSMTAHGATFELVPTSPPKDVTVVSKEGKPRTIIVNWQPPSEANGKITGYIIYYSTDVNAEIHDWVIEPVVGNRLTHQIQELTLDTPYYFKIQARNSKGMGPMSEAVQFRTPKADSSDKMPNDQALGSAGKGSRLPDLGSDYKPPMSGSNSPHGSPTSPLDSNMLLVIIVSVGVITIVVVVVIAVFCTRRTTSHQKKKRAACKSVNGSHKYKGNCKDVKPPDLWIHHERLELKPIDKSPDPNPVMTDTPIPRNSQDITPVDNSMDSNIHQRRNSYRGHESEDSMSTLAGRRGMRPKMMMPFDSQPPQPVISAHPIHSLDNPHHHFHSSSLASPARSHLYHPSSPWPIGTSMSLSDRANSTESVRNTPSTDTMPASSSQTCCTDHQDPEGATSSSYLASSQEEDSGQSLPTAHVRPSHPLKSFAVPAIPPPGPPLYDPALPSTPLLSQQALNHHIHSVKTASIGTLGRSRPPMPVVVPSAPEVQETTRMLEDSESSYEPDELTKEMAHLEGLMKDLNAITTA

Row | Binder | binding [1] | binding [2]
1 | B1 | binds | –
2 | B2 | – | binds
